For assay [1], the target named is T1, KGD1 (yeast (endogenous in mitochondria of strain YPH499)) (UniProt P20967).
T1 sequence: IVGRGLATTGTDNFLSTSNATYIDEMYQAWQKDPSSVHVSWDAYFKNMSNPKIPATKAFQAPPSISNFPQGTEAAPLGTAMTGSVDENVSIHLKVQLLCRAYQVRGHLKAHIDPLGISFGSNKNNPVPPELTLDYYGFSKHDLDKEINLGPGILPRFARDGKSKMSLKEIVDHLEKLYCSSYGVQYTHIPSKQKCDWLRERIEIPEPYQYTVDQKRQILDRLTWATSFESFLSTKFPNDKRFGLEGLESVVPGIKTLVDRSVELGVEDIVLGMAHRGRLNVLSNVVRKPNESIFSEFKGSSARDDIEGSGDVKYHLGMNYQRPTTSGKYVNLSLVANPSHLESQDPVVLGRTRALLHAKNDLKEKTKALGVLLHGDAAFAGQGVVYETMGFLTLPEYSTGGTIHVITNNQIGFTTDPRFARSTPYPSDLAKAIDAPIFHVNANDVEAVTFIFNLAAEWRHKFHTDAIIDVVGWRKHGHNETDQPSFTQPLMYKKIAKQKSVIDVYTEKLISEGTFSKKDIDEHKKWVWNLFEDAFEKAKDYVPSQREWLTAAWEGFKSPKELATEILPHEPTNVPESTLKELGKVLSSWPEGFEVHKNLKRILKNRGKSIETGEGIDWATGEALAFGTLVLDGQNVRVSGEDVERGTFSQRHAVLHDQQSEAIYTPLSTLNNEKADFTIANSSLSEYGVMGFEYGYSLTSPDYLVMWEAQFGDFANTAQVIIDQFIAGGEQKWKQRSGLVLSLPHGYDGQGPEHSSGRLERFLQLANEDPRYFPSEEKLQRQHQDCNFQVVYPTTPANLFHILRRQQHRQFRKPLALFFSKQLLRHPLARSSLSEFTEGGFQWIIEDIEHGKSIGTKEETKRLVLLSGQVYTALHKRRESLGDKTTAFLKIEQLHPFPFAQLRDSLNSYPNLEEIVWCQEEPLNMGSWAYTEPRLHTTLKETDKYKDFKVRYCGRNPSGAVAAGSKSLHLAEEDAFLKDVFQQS
The assay can be described thus: cross-linking; intact purified yeast mitochondria (5 mg/ml, isotonic buffer: 250 mM sucrose, 1 mM EDTA, 10 mM MOPS-KOH, pH 7.2) crosslinked in organello with 2 mM CBDPS-H8/D8, 21 °C 10 min then on ice 110 min; Lys-Lys inter-protein crosslinked peptides enriched (SCX, avidin) and identified by LC-MS/MS, FDR 2%.

Chains of the proteins cited; added tags and fusions are not shown. Lines headed by an entry give the natural chain unless they say otherwise; changes in a name come on top.
UniProt Q12335: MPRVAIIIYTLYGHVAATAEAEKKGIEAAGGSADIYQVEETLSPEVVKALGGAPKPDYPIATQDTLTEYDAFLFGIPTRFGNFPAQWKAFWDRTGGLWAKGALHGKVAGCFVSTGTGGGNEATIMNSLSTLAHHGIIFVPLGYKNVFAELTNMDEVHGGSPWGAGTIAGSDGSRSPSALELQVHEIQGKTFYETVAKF

The target in assay [2] is PST2 (yeast (endogenous in mitochondria of strain YPH499)) (UniProt Q12335). The description is as above.

These are yes or no findings as the source states them, for the method shown. In cells and extracts the contact can be indirect. A result given as binding can be weak or reduced; the word gives no strength.

We go through two molecules from paper PMC7124466.

Regarding KGD2, in assay [1], the binding result is given as “binds”.

B1: YCP4 (protein, UniProt P25349 1-247)
chain: MVKIAIITYSTYGHIDVLAQAVKKGVEAAGGKADIYRVEETLPDEVLTKMNAPQKPEDIPVATEKTLLEYDAFLFGVPTRFGNLPAQWSAFWDKTGGLWAKGSLNGKAAGIFVSTSSYGGGQESTVKACLSYLAHHGIIFLPLGYKNSFAELASIEEVHGGSPWGAGTLAGPDGSRTASPLELRIAEIQGKTFYETAKKLFPAKEAKPSTEKKTTTSDAAKRQTKPAAATTAEKKEDKGLLSCCTVM
On to B1, for which the binding entry in assay [2] was “binds”.
